The source of these data is patent publication US20140322220A1.

No constants are given. Whether binding was seen depends on the method and setting. A result given as binding can be weak or reduced; the word gives no strength.

The target in the experiment is human FGFR2 alpha IIIb (human). Put plainly: ELISA check of the anti-mouse IgG (Fc specific) POD conjugate. A general note: An ELISA detects its analyte on a solid surface through an enzyme-linked reagent.

B1: M048-D01-mIgG2a (antibody)
heavy: EVQLLESGGGLVQPGGSLRLSCAASGFTFSSYAMSWVRQAPGKGLEWVSAISGSGTSTYYADSVKGRFTISRDNSKNTLYLQMNSLRAEDTAVYYCARVRYNWNHGDWFDPWGQGTLVTVSSAKTTAPSVYPLAPVCGDTTGSSVTLGCLVKGYFPEPVTLTWNSGSLSSGVHTFPAVLQSDLYTLSSSVTVTSSTWPSQSITCNVAHPASSTKVDKKIEPRGPTIKPCPPCKCPAPNLLGGPSVFIFPPKIKDVLMISLSPIVTCVVVDVSEDDPDVQISWFVNNVEVHTAQTQTHREDYNSTLRVVSALPIQHQDWMSGKEFKCKVNNKDLPAPIERTISKPKGSVRAPQVYVLPPPEEEMTKKQVTLTCMVTDFMPEDIYVEWTNNGKTELNYKNTEPVLDSDGSYFMYSKLRVEKKNWVERNSYSCSVVHEGLHNHHTTKSFSRTPGK
VL: QSVLTQPPSASGTPGQRVTISCSGSSSNIGNNYVSWYQQLPGTAPKLLIYENYNRPAGVPDRFSGSKSGTSASLAISGLRSEDEADYYCSSWDDSLNYWVFGGGTKLTVL
For B1, the binding entry is listed as “binds”.
